The target in assay [1] is T1, caspase 8 (rat lung) (rat (endogenous in Sprague-Dawley rat lung)) (UniProt Q9JHX4).
T1 sequence: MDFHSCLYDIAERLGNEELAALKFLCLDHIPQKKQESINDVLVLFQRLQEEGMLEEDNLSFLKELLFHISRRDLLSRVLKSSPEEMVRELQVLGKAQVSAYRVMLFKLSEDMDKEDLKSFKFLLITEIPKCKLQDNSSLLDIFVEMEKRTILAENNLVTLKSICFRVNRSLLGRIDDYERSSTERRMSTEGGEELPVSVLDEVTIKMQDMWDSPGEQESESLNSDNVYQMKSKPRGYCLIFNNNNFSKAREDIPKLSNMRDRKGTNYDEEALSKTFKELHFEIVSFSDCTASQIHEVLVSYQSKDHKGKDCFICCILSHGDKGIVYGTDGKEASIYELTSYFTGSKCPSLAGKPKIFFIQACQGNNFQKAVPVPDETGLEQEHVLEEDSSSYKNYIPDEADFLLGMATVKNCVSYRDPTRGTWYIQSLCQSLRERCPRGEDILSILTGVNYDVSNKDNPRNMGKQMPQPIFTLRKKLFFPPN
The experiment in a line: co-IP; 250 ug cytosolic extract of lungs of septic rats 48 h after 2CLP (treated with PBS, AdGFP or AdHSP); rabbit polyclonal anti-Apaf-1, anti-caspase 8 or anti-caspase 9, overnight at 4 C, protein A/G beads, three washes with lysis buffer; immunoblot. In general terms: Immunoblotting shows a protein as a band on a membrane.

Chains of the proteins cited; added tags and fusions are not shown.
UniProt Q9JHK1: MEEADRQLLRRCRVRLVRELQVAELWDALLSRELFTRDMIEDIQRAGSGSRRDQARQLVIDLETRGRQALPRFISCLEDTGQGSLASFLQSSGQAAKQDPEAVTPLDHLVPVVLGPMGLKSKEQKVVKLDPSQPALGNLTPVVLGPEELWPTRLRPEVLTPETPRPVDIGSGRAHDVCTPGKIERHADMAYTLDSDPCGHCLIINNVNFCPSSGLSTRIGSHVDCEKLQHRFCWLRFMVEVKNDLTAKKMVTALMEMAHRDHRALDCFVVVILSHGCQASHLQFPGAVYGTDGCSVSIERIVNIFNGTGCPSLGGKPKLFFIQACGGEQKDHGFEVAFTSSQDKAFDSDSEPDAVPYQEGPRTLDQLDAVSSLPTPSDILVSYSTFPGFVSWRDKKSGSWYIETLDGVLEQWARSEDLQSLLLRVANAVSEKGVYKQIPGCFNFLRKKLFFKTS

The target of assay [2] is T2, Apaf-1 (rat lung) (rat (endogenous in Sprague-Dawley rat lung)) (UniProt Q9EPV5).
T2 sequence: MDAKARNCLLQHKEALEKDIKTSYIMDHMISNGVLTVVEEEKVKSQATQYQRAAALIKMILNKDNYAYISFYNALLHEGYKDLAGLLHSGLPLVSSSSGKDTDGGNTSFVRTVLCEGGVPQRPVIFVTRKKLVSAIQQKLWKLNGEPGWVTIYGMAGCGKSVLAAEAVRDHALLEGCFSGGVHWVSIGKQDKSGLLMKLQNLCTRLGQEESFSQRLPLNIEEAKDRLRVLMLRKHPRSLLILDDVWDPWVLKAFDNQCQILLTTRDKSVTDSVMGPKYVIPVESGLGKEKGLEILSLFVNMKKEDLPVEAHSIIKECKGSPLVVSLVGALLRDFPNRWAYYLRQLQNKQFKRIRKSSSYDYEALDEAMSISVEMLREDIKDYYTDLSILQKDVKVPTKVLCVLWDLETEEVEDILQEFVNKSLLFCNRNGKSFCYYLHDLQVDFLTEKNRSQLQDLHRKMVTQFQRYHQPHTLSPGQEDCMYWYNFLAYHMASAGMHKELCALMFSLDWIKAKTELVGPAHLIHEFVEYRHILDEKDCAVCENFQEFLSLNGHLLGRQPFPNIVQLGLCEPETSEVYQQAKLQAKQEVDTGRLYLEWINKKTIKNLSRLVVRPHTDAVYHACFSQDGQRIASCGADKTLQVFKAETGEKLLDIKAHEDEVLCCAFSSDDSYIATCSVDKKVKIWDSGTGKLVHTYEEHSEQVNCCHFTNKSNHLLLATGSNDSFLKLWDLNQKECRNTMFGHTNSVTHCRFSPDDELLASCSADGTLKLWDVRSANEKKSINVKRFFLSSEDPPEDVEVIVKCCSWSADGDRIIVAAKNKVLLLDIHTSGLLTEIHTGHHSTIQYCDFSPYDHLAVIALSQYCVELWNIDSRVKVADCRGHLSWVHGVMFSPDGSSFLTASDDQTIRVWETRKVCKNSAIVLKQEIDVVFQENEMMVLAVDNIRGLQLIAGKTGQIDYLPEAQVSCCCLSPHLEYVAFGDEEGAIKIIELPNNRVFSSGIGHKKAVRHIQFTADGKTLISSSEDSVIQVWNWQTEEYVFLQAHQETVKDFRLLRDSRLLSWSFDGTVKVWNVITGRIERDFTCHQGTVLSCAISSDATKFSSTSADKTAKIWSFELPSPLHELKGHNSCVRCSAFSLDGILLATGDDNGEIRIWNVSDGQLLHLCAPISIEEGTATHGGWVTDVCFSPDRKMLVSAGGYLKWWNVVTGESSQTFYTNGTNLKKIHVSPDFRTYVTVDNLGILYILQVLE
The description is as above.

For assay [3], the target named is T2, Apaf-1 (rat lung) (rat (endogenous in Sprague-Dawley rat lung)). The experiment in a line: co-IP; 250 ug cytosolic extract of lungs of non-septic, untreated rats (T0); rabbit polyclonal anti-Apaf-1, protein A/G beads; immunoblot for pro-caspase 9.
For assay [4], the target named is caspase 9 (rat lung) (rat (endogenous in Sprague-Dawley rat lung)) (UniProt Q9JHK1). The assay can be described thus: SEC + co-IP; cytosolic extracts of lungs of septic rats (2CLPPBS, 2CLPAdHSP) fractionated by molecular weight on Sephacryl S300 (20 mM Tris pH 8.0, 0.1 M NaCl, 0.02% NaN3) and precipitated with an antibody to caspase-9; immunoblot for caspase 9, caspase 8, pro-caspase 3, Hsp70 and Apaf-1.

Assay [5] shares this target. The assay can be described thus: co-IP; 250 ug cytosolic extract of lungs of septic rats 48 h after 2CLP (treated with PBS, AdGFP or AdHSP); rabbit polyclonal anti-Apaf-1, anti-caspase 8 or anti-caspase 9, overnight at 4 C, protein A/G beads, three washes with lysis buffer; immunoblot.
Assay [6] concerns the target T1, caspase 8 (rat lung) (rat (endogenous in Sprague-Dawley rat lung)). The assay can be described thus: SEC + co-IP; cytosolic extracts of lungs of septic rats (2CLPPBS, 2CLPAdHSP) fractionated by molecular weight on Sephacryl S300 (20 mM Tris pH 8.0, 0.1 M NaCl, 0.02% NaN3) and precipitated with an antibody to caspase-9; immunoblot for caspase 9, caspase 8, pro-caspase 3, Hsp70 and Apaf-1.

Results are given in words; binding and its absence hold for the method and conditions named. In cells and extracts the contact can be indirect. Some results given as binding are weak or reduced against the parent protein; the word gives no strength.

On to “caspase 9 (rat lung) (from UniProt Q9JHK1 1-454) (enzyme)”, for which, in assay [1], the binding result is listed as “binds”.
On to “pro-caspase 9 (rat lung) (from UniProt Q9JHK1 1-454) (enzyme)”, for which the binding entry in assay [2] is reported as “binds”; in assay [3] it was “no binding (condition: non-septic, untreated animals (T0))”.

B1: caspase 8 (rat lung) (enzyme, UniProt Q9JHX4 1-482)
chain: T1 sequence
In the case of B1, the binding result in assay [4] and in assay [5] was “binds” throughout.

B2: Apaf-1 (rat lung) (protein, UniProt Q9EPV5 1-1249)
chain: T2 sequence
Consider B2, for which, in assay [4], the binding result is “binds”.

B3: pro-caspase 3 (rat lung) (enzyme, UniProt P55213 1-277)
chain: MDNNETSVDSKSINNFETKTIHGSKSMDSGIYLDSSYKMDYPEMGLCIIINNKNFHKSTGMSARNGTDVDAANLRETFMALKYEVRNKNDLTREEIMELMDSVSKEDHSKRSSFVCVILSHGDEGVIFGTNGPVDLKKLTSFFRGDYCRSLTGKPKLFIIQACRGTELDCGIETDSGTDDDMACQKIPVEADFLYAYSTAPGYYSWRNSRDGSWFIQSLCAMLKLYAHKLEFMHILTRVNRKVATEFESFSLDATFHAKKQIPCIVSMLTKELYFYH
On to B3, for which the binding result in assay [6] and in assay [4] was “binds” in each case.

The values are drawn from publication PMC3223157.
